Values from PubChem BioAssay AID504786 (Drosophila RNAi Screening Center, 2011)
The screen tested about 21,000 reagents; shown is an unselected part of those that have a named target and a result. 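Primary screen; positive scores mean lost reporter signal, so the sign may be inverted from the usual convention.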 Names joined by + are all predicted targets of the reagent. Reagent sequences are not shown.

- Test: 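Fly genes required for HIF-dependent transcription when hypoxia is mimicked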 (primary screen)
- Cell system: Drosophila S2 cells with a stable HIF luciferase reporter
- Reagents: long dsRNA against Drosophila genes, about 0.2 µg dsRNA per well of a 384-well plate
- Timing: three days of knock-down, then 20 h of DFO before reading
- Treatment: desferrioxamine (DFO) at 100 µM, an iron chelator that mimics hypoxia, for 20 h
- Read-out: 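Firefly luciferase driven by the mouse ldh-a hypoxia-response element, measured after 20 h of 100 µM DFO; z-scores per plate, higher means more signal lost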
- Reading the numbers: z-score: higher = stronger loss of HIF reporter signal

| Target gene | amplicon | z-score, replicate 1 | z-score, replicate 2 | z-score, replicate 3 | z-score, replicate 4 |
| --- | --- | --- | --- | --- | --- |
| GluRIA | DRSC11176 | -0.4 | -0.8 | – | – |
| Cpr49Ah | DRSC07204 | -0.1 | 0 | – | – |
| hbn | DRSC04082 | 2.6 | 4 | – | – |
| hbn | DRSC04238 | -0.1 | -0.2 | -0.2 | -0.2 |
| hbn | DRSC04239 | -0.4 | -0.9 | – | – |
| Itpr | DRSC12354 | -0.4 | -0.3 | – | – |
| Cdc6 | DRSC10563 | -0.1 | -0.3 | – | – |
| CG33631 | DRSC12763 | -0.2 | 0 | – | – |
| brv3 | DRSC18657 | -0.4 | -0.5 | – | – |
| Dbp21E2 | DRSC00616 | -0.3 | -0.3 | – | – |
| Megf8 | DRSC03058 | -0.3 | -0.2 | – | – |
| CG13705 | DRSC08314 | -0.4 | -0.9 | – | – |
| CG3548 | DRSC04387 | -0.3 | 0.4 | – | – |
| Prp38 | DRSC07060 | 0.9 | 1.6 | – | – |
| Vps8 | DRSC09705 | -0.4 | -1 | – | – |
| GstE1 | DRSC07437 | -0.4 | -0.2 | – | – |
| hmw | DRSC16277 | -0.2 | -0.5 | – | – |
| CG14960 | DRSC08419 | -0.1 | -0.5 | – | – |
| CG15712 | DRSC06583 | -0.2 | -0.5 | – | – |
| nanos | DRSC17018 | -0.3 | -0.1 | – | – |
| ND5 (retired record) | DRSC21281 | -0.1 | 0.3 | – | – |
| mmm | DRSC10208 | 0 | 0 | – | – |
| Snx6 | DRSC03081 | -0.1 | -0.6 | – | – |
| CG5245 | DRSC15750 | -0.4 | -0.5 | – | – |
| CG33937 (retired record) | DRSC15148 | -0.2 | 0.1 | – | – |
| tral | DRSC09779 | -0.5 | -0.2 | – | – |
| Scgdelta | DRSC18544 | -0.3 | -0.5 | – | – |
| Pfas | DRSC03480 | -0.3 | -0.9 | – | – |
| Adat1 | DRSC03479 | -0.7 | -0.1 | – | – |
| CG9945 | DRSC07347 | -0.5 | -0.9 | – | – |
| Cdc50 | DRSC20224 | -0.2 | -0.5 | – | – |
| CG12818 | DRSC14556 | -0.2 | -0.4 | – | – |
| CG13950 | DRSC00368 | -0.3 | -0.4 | – | – |
| Drep3 | DRSC06312 | -0.4 | -0.3 | 0.5 | -0.3 |
| Drep3 | DRSC07529 | -0.2 | -0.3 | – | – |
| Dbp45A | DRSC07395 | -0.4 | -0.2 | – | – |
| Jhbp15 | DRSC15217 | -0.4 | -0.2 | – | – |
| CG32579 | DRSC19872 | -0.2 | 0 | – | – |
| CG30075 | DRSC05484 | -0.2 | -0.1 | – | – |
| Las | DRSC11772 | -0.1 | -0.4 | – | – |
| regucalcin | DRSC18908 | 0 | 0 | – | – |
| regucalcin | DRSC20366 | -0.3 | -0.7 | – | – |
| CG13157 | DRSC06282 | -0.2 | -0.3 | – | – |
| Alas | DRSC04044 | 0.1 | -0.3 | – | – |
| CG2082 | DRSC12125 | -0.4 | -0.7 | – | – |
| ppk5 | DRSC11492 | -0.3 | -0.1 | – | – |
| Mlf | DRSC07472 | 0.7 | 3.4 | – | – |
| CG13308 | DRSC09979 | -0.2 | 0.1 | – | – |
| CG32461 | DRSC11594 | -0.7 | -1 | – | – |
| CG30010 | DRSC05193 | -0.3 | -0.2 | – | – |
| CG18747 | DRSC15384 | -0.3 | -0.4 | – | – |
| Pex6 + Hao | DRSC06097 | -0.3 | 0.5 | – | – |
| Pex6 + Hao | DRSC06704 | 0.2 | 0.7 | – | – |
| MME1 | DRSC02714 | -0.1 | -0.5 | – | – |
| Wdr24 | DRSC14151 | -0.4 | -0.6 | – | – |
| CG14200 | DRSC19555 | -0.3 | 0 | – | – |
| et | DRSC19582 | -0.1 | 0 | – | – |
| CR18228 | DRSC15317 | 0.1 | -0.5 | – | – |
| Cerk | DRSC12285 | -0.4 | -0.6 | – | – |
| twe | DRSC03628 | -0.3 | -0.4 | – | – |
| CG12620 | DRSC02177 | -0.2 | -0.5 | – | – |
| PyK | DRSC16806 | -0.3 | -0.7 | – | – |
| Glo1 | DRSC06657 | -0.2 | -0.6 | – | – |
| CG5611 | DRSC15843 | 0 | 0.7 | – | – |
| HipHop | DRSC10734 | -0.3 | -0.7 | – | – |
| Rpt6R | DRSC15431 | -0.3 | -0.4 | – | – |
| Gr22b | DRSC20911 | 0.1 | 0.1 | – | – |
| Mic26-27 | DRSC15913 | -0.2 | -0.3 | – | – |
| Mulk | DRSC02658 | -0.1 | 1.1 | – | – |
| Blos2 | DRSC10147 | -0.2 | -0.4 | – | – |
| CG13743 | DRSC05139 | -0.1 | -0.8 | -0.2 | 0.2 |
| CG13743 | DRSC06414 | 0.1 | 0.4 | – | – |
| CG9004 | DRSC08617 | 0.1 | 0.8 | – | – |
| DNAlig4 | DRSC19436 | -0.1 | 0.3 | – | – |
| CG5958 | DRSC02915 | -0.3 | -0.2 | – | – |
| CG34155 | DRSC13991 | -0.1 | 0.2 | – | – |
| lft | DRSC02236 | 0 | -0.1 | – | – |
| CG1537 | DRSC19662 | -0.4 | -1.1 | – | – |
| Obp83b | DRSC12360 | 0.1 | -0.2 | – | – |
| Cdk12 | DRSC11836 | 2.5 | 2.4 | – | – |
| Hr83 | DRSC12521 | -0.4 | -0.2 | – | – |
| CG1902 | DRSC06798 | -0.4 | -0.3 | – | – |
| CG42394 + CG6567 | DRSC12821 | -0.2 | 0.3 | – | – |
| Pis | DRSC20178 | -0.3 | 0.5 | – | – |
| CG31867 | DRSC03338 | -0.2 | 0.2 | – | – |
| CG18420 | DRSC01954 | -0.4 | -0.5 | – | – |
| CG14712 | DRSC14935 | -0.5 | -0.3 | – | – |
| htt | DRSC16970 | -0.2 | -0.4 | – | – |
| Tango5 | DRSC18023 | -0.5 | -0.1 | – | – |
| Rad51D | DRSC06840 | -0.3 | -0.5 | – | – |
| CG34011 | DRSC00888 | -0.2 | -0.4 | – | – |
| SMSr | DRSC10998 | -0.2 | -0.3 | – | – |
| SMSr | DRSC10999 | -0.2 | 1.2 | – | – |
| sns | DRSC06423 | 0.6 | 3.3 | – | – |
| sns | DRSC07687 | 0.1 | 0.9 | – | – |
| sns | DRSC07688 | -1 | -0.4 | – | – |
| sns | DRSC07689 | -0.2 | -0.1 | – | – |
| sns | DRSC07691 | -0.3 | -0.2 | – | – |
| sns | DRSC07692 | -0.1 | -0.2 | – | – |
| DAT | DRSC07394 | -0.3 | -0.6 | – | – |
| CG42404 | DRSC15558 | -0.3 | -0.6 | – | – |
| Muc30E | DRSC01101 | 0.1 | 0.1 | -0.4 | -0.3 |
| Nf-YA | DRSC10385 | 1.6 | 0.2 | – | – |
| CG18746 | DRSC15383 | -0.3 | -0.2 | – | – |
| Ten-m | DRSC11664 | -0.3 | -0.5 | – | – |
| Ten-m | DRSC11882 | -0.3 | -0.4 | – | – |

As entered above.
CG15712 [DRSC06583], z-score, replicate 1 → -0.2
Under “z-score, replicate 2”, CG34011 [DRSC00888] reads -0.4
sns [DRSC06423], z-score, replicate 2 = 3.3
For “z-score, replicate 1”, CG30075 [DRSC05484] shows -0.2
For “z-score, replicate 2”, CR18228 [DRSC15317] is entered as -0.5
DNAlig4 [DRSC19436], z-score, replicate 1 → -0.1
